Laboratory results taken from doi:10.1101/2022.01.10.475683.
These are yes or no findings as the source states them, for the method shown. Binding calls can cover weak binding; strength is not graded here. For some assays here: Binding seen in cells or lysates may run through a third protein. For some assays here: Where a sequence is shown, tags or fusion partners need not be part of it.

Legend:
[1] = target: T1, OsTPR1, full length, pGBKT7-OsTPR1 (rice) (UniProt Q5NBT9); assay: two-hybrid
T1 sequence: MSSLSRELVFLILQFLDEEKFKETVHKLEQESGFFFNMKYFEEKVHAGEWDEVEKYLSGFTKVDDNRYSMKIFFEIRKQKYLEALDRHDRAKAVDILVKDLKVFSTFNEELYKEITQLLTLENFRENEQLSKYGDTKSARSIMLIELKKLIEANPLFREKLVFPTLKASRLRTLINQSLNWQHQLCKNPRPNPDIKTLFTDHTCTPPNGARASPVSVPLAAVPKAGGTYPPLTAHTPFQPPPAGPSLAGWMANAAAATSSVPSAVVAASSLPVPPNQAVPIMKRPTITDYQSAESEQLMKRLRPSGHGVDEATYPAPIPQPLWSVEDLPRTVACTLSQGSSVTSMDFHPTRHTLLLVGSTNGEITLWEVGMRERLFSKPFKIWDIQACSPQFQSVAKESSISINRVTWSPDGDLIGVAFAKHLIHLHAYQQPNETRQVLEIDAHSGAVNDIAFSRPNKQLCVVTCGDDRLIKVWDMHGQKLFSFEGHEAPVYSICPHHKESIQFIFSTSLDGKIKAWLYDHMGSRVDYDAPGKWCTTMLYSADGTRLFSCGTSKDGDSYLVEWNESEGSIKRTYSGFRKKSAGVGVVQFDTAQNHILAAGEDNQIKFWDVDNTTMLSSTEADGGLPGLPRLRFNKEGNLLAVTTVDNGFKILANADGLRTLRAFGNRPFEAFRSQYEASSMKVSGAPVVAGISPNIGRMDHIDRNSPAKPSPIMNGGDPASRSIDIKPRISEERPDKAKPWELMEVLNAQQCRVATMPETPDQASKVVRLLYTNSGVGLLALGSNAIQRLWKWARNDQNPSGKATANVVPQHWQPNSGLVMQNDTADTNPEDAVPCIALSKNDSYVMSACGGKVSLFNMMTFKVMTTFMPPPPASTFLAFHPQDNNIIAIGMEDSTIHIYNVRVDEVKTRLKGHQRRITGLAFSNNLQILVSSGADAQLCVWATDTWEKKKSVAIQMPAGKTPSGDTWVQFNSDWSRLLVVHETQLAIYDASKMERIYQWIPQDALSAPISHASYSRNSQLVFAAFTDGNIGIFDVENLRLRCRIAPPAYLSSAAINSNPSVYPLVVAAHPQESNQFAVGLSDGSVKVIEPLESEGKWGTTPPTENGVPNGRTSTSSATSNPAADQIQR

[2] = target: T2, OsTPR3, full length, pGBKT7-OsTPR3 (rice) (UniProt Q10NY2); assay: two-hybrid
T2 sequence: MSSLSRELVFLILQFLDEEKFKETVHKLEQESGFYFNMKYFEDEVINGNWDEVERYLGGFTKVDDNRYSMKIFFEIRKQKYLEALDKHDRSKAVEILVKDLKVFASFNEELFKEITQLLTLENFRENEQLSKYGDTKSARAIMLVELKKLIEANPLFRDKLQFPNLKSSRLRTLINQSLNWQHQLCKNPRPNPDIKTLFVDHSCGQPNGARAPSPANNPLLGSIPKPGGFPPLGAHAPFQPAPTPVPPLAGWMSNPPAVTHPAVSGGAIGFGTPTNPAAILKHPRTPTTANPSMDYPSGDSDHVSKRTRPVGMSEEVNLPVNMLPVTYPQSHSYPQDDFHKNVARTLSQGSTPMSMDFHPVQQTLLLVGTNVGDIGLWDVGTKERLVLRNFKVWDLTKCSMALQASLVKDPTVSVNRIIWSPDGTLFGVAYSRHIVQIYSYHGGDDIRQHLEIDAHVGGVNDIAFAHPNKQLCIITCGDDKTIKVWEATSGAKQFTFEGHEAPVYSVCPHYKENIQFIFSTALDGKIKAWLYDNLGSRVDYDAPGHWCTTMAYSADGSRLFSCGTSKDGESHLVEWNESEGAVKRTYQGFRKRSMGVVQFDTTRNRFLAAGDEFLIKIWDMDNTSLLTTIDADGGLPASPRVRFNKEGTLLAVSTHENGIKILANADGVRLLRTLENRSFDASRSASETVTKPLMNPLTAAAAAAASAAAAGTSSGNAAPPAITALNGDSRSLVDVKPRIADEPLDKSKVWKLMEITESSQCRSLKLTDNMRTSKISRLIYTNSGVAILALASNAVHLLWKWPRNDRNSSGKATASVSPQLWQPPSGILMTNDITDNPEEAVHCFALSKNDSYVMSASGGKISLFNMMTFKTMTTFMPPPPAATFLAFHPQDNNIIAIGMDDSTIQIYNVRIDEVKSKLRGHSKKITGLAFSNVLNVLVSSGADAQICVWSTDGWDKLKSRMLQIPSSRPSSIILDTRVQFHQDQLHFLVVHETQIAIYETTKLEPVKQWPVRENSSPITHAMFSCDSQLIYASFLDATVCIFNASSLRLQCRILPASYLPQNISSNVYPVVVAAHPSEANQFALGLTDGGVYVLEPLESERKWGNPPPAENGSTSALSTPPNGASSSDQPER

[3] = target: T3, nYFP-OsTPR3 (rice) (UniProt Q10NY2); assay: split reporter
T3 sequence: T2 sequence

[4] = target: T4, nYFP-OsTPR1 (rice) (UniProt Q5NBT9); assay: split reporter
T4 sequence: T1 sequence

## C-WL1 (C-terminal EAR motif of WL1), pGADT7-C-WL1 (rice) (domain or fragment)
[1]
  binding: binds
[2]
  binding: binds

## N-WL1 (N-terminal EAR motif of WL1), pGADT7-N-WL1 (rice) (domain or fragment)
[1]
  binding: binds
[2]
  binding: binds

## WL1-cYFP (rice)
[3]
  binding: binds
[4]
  binding: binds

## mutated WL1 protein (rice)
[1]
  binding: binds
[2]
  binding: binds
